In the supplement of paper PMC8166895:
Where a name gives a salt, the structure may show the parent alone. Some of the results follow. Most entries show no effect beyond the scatter of the controls.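 Differential scanning fluorimetry gave melting temperatures in a one-replicate pilot screen of a library of approved drugs plus clinical or known-target compounds. Hits increasing melting point at least 2 °C were the strongest stabilizers, while negative shifts signify destabilization.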

Each compound was assayed on SARS-CoV-2 main protease (Mpro, nsp5) (assay: thermal shift ΔTm of Mpro relative to plate average Tm; higher = stronger thermal stabilization of Mpro (binding)). Conditions: 10 µM; protein concentration 1 µM.

Structure (SMILES)	thermal shift ΔTm of Mpro [°C]
CC(C)NCC(O)c1ccc(O)c(O)c1 (stereo not given) [Isoprenaline HCl]	0.0485
Cc1cc(N2CCOCC2)cc2[nH]c(-c3c(NC[C@@H](O)c4cccc(Cl)c4)cc[nH]c3=O)nc12	0.137
COc1ccc2[nH]c([S@@+]([O-])Cc3ncc(C)c(OC)c3C)nc2c1 [Esomeprazole Magnesium]	-0.0991
COc1ccc2[nH]c([S@@+]([O-])Cc3ncc(C)c(OC)c3C)nc2c1 [Esomeprazole Sodium]	-0.12
C[N+](C)(C)CC(O)CC(=O)O (stereo in doubt) [L-Carnitine hydrochloride]	0.286
CC1(C)C[C@@H]1C(=O)N/C(=C\CCCCSC[C@H](N)C(=O)O)C(=O)O [Cilastatin]	0.403
O=C(NCc1cccc(O)c1)c1cc2cc(F)ccc2[nH]1	0.00276
CN(C)Cc1cccc(N=C(c2ccccc2)c2c(O)[nH]c3cc(C(=O)N(C)C)ccc23)c1	-0.184
OC(c1cc(C(F)(F)F)nc2c(C(F)(F)F)cccc12)C1CCCCN1 (stereo not given) [Mefloquine HCl]	0.0703
CCc1c(O)cc(O)c(C(=O)c2ccc(OCCN3CCOCC3)c(OC)c2)c1CC(=O)N(CCOC)CCOC	-0.17
CNCCCC12CCC(c3ccccc31)c1ccccc12 [Maprotiline HCl]	0.0347
CC[C@H]1OC(=O)C[C@@H](O)[C@H](C)[C@@H](O[C@@H]2O[C@H](C)[C@@H](O)[C@H](N(C)C)[C@H]2O)[C@@H](CCN2C[C@H](C)C[C@H](C)C2)C[C@@H](C)C(=O)/C=C/C(C)=C/[C@@H]1CO[C@@H]1O[C@H](C)[C@@H](O)[C@@H](OC)[C@H]1OC [Tilmicosin]	0.0292
Cc1coc2c1C(=O)C(=O)c1c-2ccc2c1CCCC2(C)C [Tanshinone IIA]	-0.0364
Cc1cn2cc(C(=O)N(C)CCO)cc(N[C@@H]3CCOc4cccc(C)c43)c2n1	-0.0777
CO/N=C(\C(=O)N[C@@H]1C(=O)N2C(C(=O)[O-])=C(C[N+]3(C)CCCC3)CS[C@H]12)c1csc(N)n1 [Cefepime Dihydrochloride Monohydrate]	0.0607
NCC1CCN(c2nccc(-c3ccc4ccccc4c3)n2)CC1	0.0268
Fc1cc(F)c2c(c1)[C@H]1C=CC[C@H]1C(c1cccnc1)N2 (stereo not given in full) [Golgicide A]	0.0423
CC[C@@H](C)c1ccc(NC(=O)Cn2cnc3c2c(=O)n(C)c(=O)n3C)cc1 (racemic)	0.109

Structure (SMILES)	thermal shift ΔTm of Mpro [°C]
N#Cc1ccc(COC[C@H]2O[C@@H](n3c(NCc4ccc(Cl)c(Cl)c4)nc4c(N)ncnc43)[C@H](O)[C@@H]2O)cc1	-0.205
C[C@]12C=CC(=O)C=C1CC[C@H]1[C@@H]3C[C@@H](O)[C@](O)(C(=O)CO)[C@@]3(C)C[C@H](O)[C@@]12F [Triamcinolone]	0.096
CC1(C)O[C@@H]2C[C@H]3[C@@H]4CCC5=CC(=O)CC[C@]5(C)[C@@]4(F)[C@@H](O)C[C@]3(C)[C@]2(C(=O)CCl)O1 [Halcinonide]	-0.084
C=C1CCN([C@H](C)[C@](O)(Cn2cncn2)c2ccc(F)cc2F)CC1 [Efinaconazole]	0.0185
CN(C)CCN(C)CCc1ccc(Cl)c(Cl)c1	0.148
CCN(CC)C(=O)/C(C#N)=C/c1cc(O)c(O)c([N+](=O)[O-])c1 [Entacapone]	0.658
S=C(NCCc1ccccn1)Nc1ccc(Br)cn1 [Trovirdine]	-0.0465
C[C@@H]1O[C@@H](OC[C@H]2O[C@@H](Oc3c(-c4ccc(OCCO)c(OCCO)c4)oc4cc(OCCO)cc(O)c4c3=O)[C@H](O)[C@@H](O)[C@@H]2O)[C@H](O)[C@H](O)[C@H]1O [Troxerutin]	-0.0554
Nc1nc(N)nc(NC2CC2)n1 [Cyromazine]	-0.0873
Cn1nnc(-c2ccc3c(c2)[nH]c2nc(Cc4ccccc4)nc(NC4CCC(N)CC4)c23)n1 (stereo not given)	-0.169
C[C@@H](O)[C@H]1C(=O)N2C(C(=O)O)=C(S[C@@H]3CN[C@H](C(=O)N(C)C)C3)[C@H](C)[C@H]12 [Meropenem]	0.121
COc1ccc(NC(=O)c2ccc(C(=N)N(C)C)cc2)c(C(=O)Nc2ccc(Cl)cn2)c1 [Betrixaban hydrochloride]	0.0237
COc1ccc(NC(=O)c2ccc(C(=N)N(C)C)cc2)c(C(=O)Nc2ccc(Cl)cn2)c1 [Betrixaban maleate]	0.0141
Cc1cc(C)cc(OCC2CNC(=O)O2)c1 (stereo not given) [Metaxalone]	0.21
CN1[C@@H]2CC[C@H]1C[C@@H](OC(=O)[C@H](CO)c1ccccc1)C2 [Hyoscyamine]	-0.0775
CC(=O)O[C@H]1C[C@@H]2CC[C@@H]3[C@H](CC[C@@]4(C)[C@H]3C[C@H]([N+]3(C)CCCCC3)[C@@H]4OC(C)=O)[C@@]2(C)C[C@@H]1N1CCCCC1 [Vecuronium Bromide]	0.102
CC(C)(C)c1nc(-c2cccc(NS(=O)(=O)c3c(F)cccc3F)c2F)c(-c2ccnc(N)n2)s1	-0.169

Some of the entries above, reformatted:
Structure (SMILES) | thermal shift ΔTm of Mpro [°C]
C=C1CCN([C@H](C)[C@](O)(Cn2cncn2)c2ccc(F)cc2F)CC1 [Efinaconazole] | 0.0185
CC(C)(C)c1nc(-c2cccc(NS(=O)(=O)c3c(F)cccc3F)c2F)c(-c2ccnc(N)n2)s1 | -0.169
